Results are given in words; binding and its absence hold for the method and conditions named. Some results given as binding are weak or reduced against the parent protein; the word gives no strength.
Target: TRAPPC4 (human) (UniProt Q9Y296)
Experiment: HDX-MS; 1 uM Rab1, Rab11 or Rab43 and 350 nM TRAPPII; 20 mM EDTA for 30 min on ice to release nucleotide; 3, 30, 300, 3000 s at room temperature; 85% D2O, 10 mM HEPES pH 7.5, 50 mM NaCl; both purified

In the case of Rab11 (from UniProt P62491 1-216), the binding is reported as “binds”.

From article PMC7719173
